Results as given in article PMC5423775, “Structure of a AAA+ unfoldase in the process of unfolding substrate” (eLife, 2017).

Chains of the proteins cited; added tags and fusions are not shown. Lines headed by an entry give the natural chain unless they say otherwise; changes in a name come on top.
UniProt O05209: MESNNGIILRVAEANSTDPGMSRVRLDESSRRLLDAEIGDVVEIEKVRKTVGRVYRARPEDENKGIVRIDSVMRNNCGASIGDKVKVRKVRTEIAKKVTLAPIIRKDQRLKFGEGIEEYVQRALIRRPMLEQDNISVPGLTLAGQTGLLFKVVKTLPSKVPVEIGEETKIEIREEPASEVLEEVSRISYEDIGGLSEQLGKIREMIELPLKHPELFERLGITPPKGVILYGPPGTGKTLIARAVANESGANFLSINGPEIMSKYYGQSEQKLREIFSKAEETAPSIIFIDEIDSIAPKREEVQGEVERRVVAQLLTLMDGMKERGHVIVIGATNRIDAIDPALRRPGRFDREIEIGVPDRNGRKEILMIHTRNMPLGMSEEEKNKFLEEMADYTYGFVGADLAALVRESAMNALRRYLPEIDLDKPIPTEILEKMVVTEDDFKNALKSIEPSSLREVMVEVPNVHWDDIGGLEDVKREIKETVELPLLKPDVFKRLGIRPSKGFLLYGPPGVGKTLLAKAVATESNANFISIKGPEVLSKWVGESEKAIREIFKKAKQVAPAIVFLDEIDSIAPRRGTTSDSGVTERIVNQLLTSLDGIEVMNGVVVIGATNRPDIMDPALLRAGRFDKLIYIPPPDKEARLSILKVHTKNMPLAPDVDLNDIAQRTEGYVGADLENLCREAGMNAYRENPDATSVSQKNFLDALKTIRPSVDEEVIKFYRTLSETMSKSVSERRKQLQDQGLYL

Target: wild type VAT (Thermoplasma acidophilum) (Thermoplasma acidophilum) (UniProt O05209)
Assay: SEC; wild type and mutant protein mixed at different ratios, 15 μM protomer in 6 M guanidine hydrochloride, refolded by 1:20 dilution into 50 mM HEPES pH 7.5, 200 mM NaCl, 0.5 M arginine; concentrated; hexamer fractions collected; both purified

Q: With “catalytically inactivated VAT E291Q,E568Q (Walker B mutant) (from UniProt O05209) (enzyme)” as the substance, how does the binding read?
A: The binding was “binds”.

Results are given in words; binding and its absence hold for the method and conditions named. Binding calls can cover weak binding; strength is not graded here.
